Data on 5 substances can be found in PMC6829621.

Chains of the proteins cited; added tags and fusions are not shown. Lines headed by an entry give the natural chain unless they say otherwise; changes in a name come on top. A line that says so, or that is headed by a name, gives the form on record, which may keep a tag or linker. Residues count along the entry.
UniProt Q6T264, residues 12-74: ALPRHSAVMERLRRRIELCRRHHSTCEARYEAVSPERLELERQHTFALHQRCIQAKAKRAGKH
UniProt Q01705, residues 1751-2293: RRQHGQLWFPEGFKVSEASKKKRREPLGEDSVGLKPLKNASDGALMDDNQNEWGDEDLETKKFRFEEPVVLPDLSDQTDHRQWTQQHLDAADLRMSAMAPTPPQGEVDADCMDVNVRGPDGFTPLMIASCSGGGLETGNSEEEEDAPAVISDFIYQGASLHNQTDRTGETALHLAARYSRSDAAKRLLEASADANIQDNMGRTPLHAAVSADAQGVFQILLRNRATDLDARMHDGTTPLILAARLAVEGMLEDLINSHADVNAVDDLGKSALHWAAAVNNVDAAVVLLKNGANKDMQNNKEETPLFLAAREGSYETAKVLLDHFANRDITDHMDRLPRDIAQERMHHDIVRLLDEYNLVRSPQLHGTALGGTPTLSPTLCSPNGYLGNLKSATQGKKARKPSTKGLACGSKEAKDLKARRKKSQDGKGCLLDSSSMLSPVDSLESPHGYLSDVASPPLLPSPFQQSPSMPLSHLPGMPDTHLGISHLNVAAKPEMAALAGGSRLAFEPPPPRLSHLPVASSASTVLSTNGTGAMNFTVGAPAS
UniProt P28159: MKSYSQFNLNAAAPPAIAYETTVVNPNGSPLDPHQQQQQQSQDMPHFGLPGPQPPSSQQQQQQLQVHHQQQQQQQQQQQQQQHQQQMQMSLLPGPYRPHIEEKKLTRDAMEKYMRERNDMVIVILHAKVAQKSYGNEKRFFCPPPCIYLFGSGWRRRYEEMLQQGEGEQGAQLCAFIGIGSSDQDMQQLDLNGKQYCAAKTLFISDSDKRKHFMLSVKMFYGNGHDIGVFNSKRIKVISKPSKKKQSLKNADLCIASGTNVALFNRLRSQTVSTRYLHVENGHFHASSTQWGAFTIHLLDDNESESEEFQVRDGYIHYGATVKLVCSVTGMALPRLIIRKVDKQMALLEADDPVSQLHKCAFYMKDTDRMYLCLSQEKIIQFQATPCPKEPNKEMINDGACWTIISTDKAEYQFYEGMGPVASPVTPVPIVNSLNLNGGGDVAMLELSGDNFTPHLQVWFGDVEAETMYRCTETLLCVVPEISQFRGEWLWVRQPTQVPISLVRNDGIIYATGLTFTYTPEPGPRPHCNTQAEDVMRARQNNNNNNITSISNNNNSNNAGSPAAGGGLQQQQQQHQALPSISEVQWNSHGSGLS
Su(H)^LLL (P28159, form named): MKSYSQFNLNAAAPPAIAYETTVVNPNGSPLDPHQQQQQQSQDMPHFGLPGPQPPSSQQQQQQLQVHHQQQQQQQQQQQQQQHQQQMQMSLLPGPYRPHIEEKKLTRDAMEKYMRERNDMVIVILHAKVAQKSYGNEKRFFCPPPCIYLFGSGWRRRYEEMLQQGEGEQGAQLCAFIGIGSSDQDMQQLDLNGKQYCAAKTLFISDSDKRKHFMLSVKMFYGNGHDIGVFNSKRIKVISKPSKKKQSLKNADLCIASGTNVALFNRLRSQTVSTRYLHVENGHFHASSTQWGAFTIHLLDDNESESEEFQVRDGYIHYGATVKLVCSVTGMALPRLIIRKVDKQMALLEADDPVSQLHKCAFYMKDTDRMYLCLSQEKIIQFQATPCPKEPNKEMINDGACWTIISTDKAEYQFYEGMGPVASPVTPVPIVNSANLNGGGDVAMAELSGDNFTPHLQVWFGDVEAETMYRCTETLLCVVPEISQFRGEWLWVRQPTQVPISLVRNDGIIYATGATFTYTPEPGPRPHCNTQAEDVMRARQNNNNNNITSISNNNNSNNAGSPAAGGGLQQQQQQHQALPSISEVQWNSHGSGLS
UniProt P31266: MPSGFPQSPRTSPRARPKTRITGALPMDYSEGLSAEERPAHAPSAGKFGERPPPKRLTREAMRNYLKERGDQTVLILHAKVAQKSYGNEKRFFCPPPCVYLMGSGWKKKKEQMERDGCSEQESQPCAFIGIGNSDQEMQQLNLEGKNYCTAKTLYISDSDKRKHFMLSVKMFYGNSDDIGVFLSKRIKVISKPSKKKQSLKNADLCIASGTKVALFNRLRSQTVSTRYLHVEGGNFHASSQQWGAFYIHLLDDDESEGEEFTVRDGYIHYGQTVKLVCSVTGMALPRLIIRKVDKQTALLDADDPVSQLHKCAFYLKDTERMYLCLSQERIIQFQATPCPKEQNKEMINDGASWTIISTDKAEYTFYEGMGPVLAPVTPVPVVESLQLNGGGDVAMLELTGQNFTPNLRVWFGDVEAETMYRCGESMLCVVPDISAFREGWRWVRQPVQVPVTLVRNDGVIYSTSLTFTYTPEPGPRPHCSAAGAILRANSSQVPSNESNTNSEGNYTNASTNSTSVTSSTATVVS
RBPJ^LLL (P31266, form named): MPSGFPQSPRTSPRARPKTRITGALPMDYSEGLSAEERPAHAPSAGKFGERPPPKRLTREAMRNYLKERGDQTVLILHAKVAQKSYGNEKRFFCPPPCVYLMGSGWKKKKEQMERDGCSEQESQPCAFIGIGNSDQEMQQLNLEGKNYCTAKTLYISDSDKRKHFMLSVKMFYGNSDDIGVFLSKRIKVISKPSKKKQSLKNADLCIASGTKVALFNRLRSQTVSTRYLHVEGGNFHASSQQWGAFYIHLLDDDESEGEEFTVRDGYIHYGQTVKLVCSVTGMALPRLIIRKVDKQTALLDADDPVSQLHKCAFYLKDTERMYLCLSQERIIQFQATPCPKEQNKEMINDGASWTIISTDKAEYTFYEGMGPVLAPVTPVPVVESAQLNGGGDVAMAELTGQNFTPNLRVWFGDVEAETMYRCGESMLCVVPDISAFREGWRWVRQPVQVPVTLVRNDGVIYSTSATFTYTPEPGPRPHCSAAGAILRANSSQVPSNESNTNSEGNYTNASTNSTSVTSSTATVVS

No constants are given. Whether binding was seen depends on the method and setting. Some results given as binding are weak or reduced against the parent protein; the word gives no strength.

For assay [1], the target named is MamL (aa 12-74) of mouse Mastermind-like protein 1 (Mus musculus) (UniProt Q6T264). Kind of assay: two-hybrid; yeast protein three-hybrid assay with M. musculus components: MamL (aa 12-74) in pEG vector, NICD (aa 1751-2293) in pESC vector, CSL variants in pJG vector; lacZ reporter; qualitative, and quantified in Miller Units.
The target in assay [2] is mouse NICD (aa 1751-2293) of Notch homolog protein 1 (Mus musculus) (UniProt Q01705). The assay is described as above.
For assay [3], the target named is T1, Drosophila Mastermind (aa 118-194) (D. melanogaster) (UniProt P21519).
T1 sequence: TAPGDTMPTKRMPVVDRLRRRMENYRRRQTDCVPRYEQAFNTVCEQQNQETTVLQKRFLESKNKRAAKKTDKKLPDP
Kind of assay: two-hybrid; yeast protein three-hybrid assay with D. melanogaster components: Mam (aa 118-194) in pEG vector, RICN (aa 1762-2176) in pESC vector, CSL variants in pJG vector; lacZ reporter; qualitative, and quantified in Miller Units.

Assay [4] addresses T2, RICN, intracellular Notch including RAM domain (aa 1762-2176) (D. melanogaster) (UniProt P07207).
T2 sequence: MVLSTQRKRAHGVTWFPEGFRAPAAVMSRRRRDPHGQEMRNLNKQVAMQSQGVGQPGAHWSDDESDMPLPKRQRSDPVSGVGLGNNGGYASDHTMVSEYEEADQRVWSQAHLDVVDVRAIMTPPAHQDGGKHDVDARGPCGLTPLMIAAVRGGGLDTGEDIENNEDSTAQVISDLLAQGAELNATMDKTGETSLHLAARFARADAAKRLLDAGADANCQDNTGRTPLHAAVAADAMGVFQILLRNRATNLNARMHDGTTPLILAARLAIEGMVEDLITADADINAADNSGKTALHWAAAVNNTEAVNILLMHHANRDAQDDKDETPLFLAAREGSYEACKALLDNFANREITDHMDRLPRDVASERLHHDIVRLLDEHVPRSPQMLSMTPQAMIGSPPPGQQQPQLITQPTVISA
The description is as above.

Regarding “mouse NICD (aa 1751-2293) of Notch homolog protein 1 (from UniProt Q01705 1751-2293) (domain or fragment)”, in assay [1], the binding result is given as “binds”.
Take Su(H)^LLL (from UniProt P28159 1-594): the binding entry in assay [2] and in assay [1] was “binds” throughout.
Turning to “Suppressor of Hairless, wild type (from UniProt P28159 1-594)”, the binding result in assay [2] and in assay [1] was “binds” in each case.
As to “mouse RBPJ, wild type (from UniProt P31266 1-526)”, the binding entry in assay [2], in assay [1], in assay [3] and in assay [4] was “binds” in each case.
RBPJ^LLL (from UniProt P31266 1-526): the binding entry in assay [2], in assay [1], in assay [3] and in assay [4] was “binds” each time.
